These are yes or no findings as the source states them, for the method shown. Binding seen in cells or lysates may run through a third protein. Binding calls can cover weak binding; strength is not graded here. Sequences can lack the tags named with a protein.
Legend:
Assay in all cases: pull-down; GST-PDZD11 baits (full-length, truncated, 1-30, mutants; E. coli) on GSH-Sepharose beads, incubated 1 h at 4 °C with insect cell lysate holding full-length PLEKHA7-His; immunoblot with anti-His; only the target purified
[1] = molecular target: GST-PDZD11 N-term 1-30 E19A (human) (UniProt Q5EBL8)
[2] = molecular target: GST-PDZD11 full-length N20A (human) (UniProt Q5EBL8)
[3] = molecular target: GST-PDZD11 full-length E19A (human) (UniProt Q5EBL8)
[4] = molecular target: GST-PDZD11 N-term 1-30 N20A (human) (UniProt Q5EBL8)

Chains of the proteins cited; added tags and fusions are not shown. Lines headed by an entry give the natural chain unless they say otherwise; changes in a name come on top.
UniProt Q5EBL8: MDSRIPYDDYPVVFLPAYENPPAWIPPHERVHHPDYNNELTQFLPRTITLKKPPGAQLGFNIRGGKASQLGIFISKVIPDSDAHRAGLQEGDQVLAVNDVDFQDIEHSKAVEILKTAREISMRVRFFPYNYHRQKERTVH

Measured: binding

B1: PLEKHA7-His, full-length (protein, UniProt Q6IQ23 1-1121)
chain: MAAATVGRDTLPEHWSYGVCRDGRVFFINDQLRCTTWLHPRTGEPVNSGHMIRSDLPRGWEEGFTEEGASYFIDHNQQTTAFRHPVTGQFSPENSEFILQEEPNPHMSKQDRNQRPSSMVSETSTAGTASTLEAKPGPKIIKSSSKVHSFGKRDQAIRRNPNVPVVVRGWLHKQDSSGMRLWKRRWFVLADYCLFYYKDSREEAVLGSIPLPSYVISPVAPEDRISRKYSFKAVHTGMRALIYNSSTAGSQAEQSGMRTYYFSADTQEDMNAWVRAMNQAAQVLSRSSLKRDMEKVERQAVPQANHTESCHECGRVGPGHTRDCPHRGHDDIVNFERQEQEGEQYRSQRDPLEGKRDRSKARSPYSPAEEDALFMDLPTGPRGQQAQPQRAEKNGMLPASYGPGEQNGTGGYQRAFPPRTNPEKHSQRKSNLAQVEHWARAQKGDSRSLPLDQTLPRQGPGQSLSFPENYQTLPKSTRHPSGGSSPPPRNLPSDYKYAQDRASHLKMSSEERRAHRDGTVWQLYEWQQRQQFRHGSPTAPICLGSPEFTDQGRSRSMLEVPRSISVPPSPSDIPPPGPPRVFPPRRPHTPAERVTVKPPDQRRSVDISLGDSPRRARGHAVKNSSHVDRRSMPSMGYMTHTVSAPSLHGKSADDTYLQLKKDLEYLDLKMTGRDLLKDRSLKPVKIAESDTDVKLSIFCEQDRVLQDLEDKIRALKENKDQLESVLEVLHRQMEQYRDQPQHLEKIAYQQKLLQEDLVHIRAELSRESTEMENAWNEYLKLENDVEQLKQTLQEQHRRAFFFQEKSQIQKDLWRIEDVTAGLSANKENFRILVESVKNPERKTVPLFPHPPVPSLSTSESKPPPQPSPPTSPVRTPLEVRLFPQLQTYVPYRPHPPQLRKVTSPLQSPTKAKPKVEDEAPPRPPLPELYSPEDQPPAVPPLPREATIIRHTSVRGLKRQSDERKRDRELGQCVNGDSRVELRSYVSEPELATLSGDMAQPSLGLVGPESRYQTLPGRGLSGSTSRLQQSSTIAPYVTLRRGLNAESSKATFPRPKSALERLYSGDHQRGKMSAEEQLERMKRHQKALVRERKRTLGQGERTGLPSSRYLSRPLPGDLGSVC
binds: all assays above

Reference: article PMC7363125
